PubChem BioAssay AID445 (National Center for Advancing Translational Sciences (NCATS), 2006)
This is one part of the list. Further columns of the screen follow, without active or inactive calls. Most of these compounds were active or inconclusive in the main read-out, so they are no random draw. Potencies come from curve fits of mixed quality, noted in brackets.

Experiment: IkB Signaling
Details: ABC-DLBCL IkBa-CBG/CBR dual luciferase ratio (green luciferase fused to IkBa over red control in OCI-Ly3 lymphoma cells), 4 h
In short: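 Luminescence ratio of IκBα-fused green versus native red beetle luciferase in OCI-Ly3 cells, 4 h post-doxycycline with compound; red signal alone, scaled from basal (0%) to zero light (-100%), flagged nonspecific or cytotoxic effects.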

[1] = measured here: control luc red channel unless noted
[2] = measured here: IkB-luc green channel
[3] = measured here: control luc red channel

O=C(NCc1ccco1)c1ccc(NC(=O)C2COc3ccccc3O2)cc1 (stereo not drawn)
AC50 [1]: 39.8 µM [falling, single point]

COc1cccc(/C=C/c2nc(C#N)c(N3CCN(C)CC3)o2)c1
AC50 [1]: 25.1 µM [falling, single point]

COc1ccc(Nc2oc(COc3ccc(Cl)cc3)nc2C#N)cc1
AC50 [1]: 3.98 µM [falling, partial curve]

Cc1ccc(CCNC(=O)c2ccc(Nc3nc4ccccc4n4nnnc34)cc2)cc1
AC50 [1]: 5.01 µM [falling, partial curve]

O=C(c1n[nH]c2ccccc12)N1CCN(S(=O)(=O)c2ccc3ccccc3c2)CC1
AC50 [1]: 25.1 µM [falling, partial curve]

CCC(Sc1nc2n[nH]c(C)c2c(=N)n1-c1ccccc1Cl)C(=O)N(CC)CC (stereo not drawn)
AC50 [1]: 39.8 µM [falling, single point]

CC1Cn2c(C(=O)NCc3ccccc3Cl)cc3cccc(c32)S1 (stereo not drawn)
AC50 [1]: 39.8 µM [falling, single point]

CCOC(=O)c1c(C)oc2ncnc(Nc3cccc(C(F)(F)F)c3)c12
AC50 [1]: 0.251 µM [rising, full curve]

CN(C)C=Nc1ncc2c3ccccc3n(CCN(C)C)c2c1C#N
AC50 [1]: 31.6 µM [rising, partial curve]

O=c1oc2ccccc2cc1-c1cn2cc(Cc3ccc(F)cc3)sc2n1
AC50 [1]: 25.1 µM [rising, partial curve]

CCN(CC)S(=O)(=O)c1ccc(S(=O)(=O)N(Cc2ccccn2)Cc2ccco2)cc1
AC50 [1]: 39.8 µM [falling, single point]

Cc1ccc(Cn2ccnc2SCC(=O)NCc2ccccc2)cc1
AC50 [1]: 3.98 µM [falling, partial curve]

Cc1nc(-c2ccc(Cl)cc2)sc1CCNC(=O)C(=O)Nc1ccc2c(c1)OCO2
AC50 [1]: 2.51 µM [rising, full curve]

Cc1ccc(NC(=O)c2ccc3c(c2)NC(=O)c2ccccc2S3)c(Cl)c1
AC50 [1]: 10 µM [falling, partial curve]

Cn1c(=O)c2c(nc(SCC(=O)Nc3ccccc3F)n2Cc2ccccc2F)n(C)c1=O
AC50 [1]: 10 µM [falling, partial curve]

COc1ccc(CNC(=O)C(=O)NCC(c2ccco2)S(=O)(=O)c2ccc(Cl)cc2)cc1 (stereo not drawn)
AC50 [1]: 2.51 µM [rising, partial curve, poor fit]

COc1ccc(N2CCN(CCCNC(=O)c3c(C)nn(-c4ccc(F)cc4)c3-n3cccc3)CC2)cc1
AC50 [1]: 12.6 µM [falling, partial curve]

CCc1ccc(NC(=O)Cn2nnc(-c3ccccc3N)n2)cc1
AC50 [1]: 12.6 µM [falling, single point]

COc1ccc(S(=O)(=O)N(CC(=O)NC(C)c2ccccc2)c2ccc(C)cc2)cc1OC (stereo not drawn)
AC50 [1]: 15.8 µM [falling, partial curve]

COc1ccccc1N1CCN(C(=O)c2cc3c(=O)n(Cc4cccs4)ccc3nc2C)CC1
AC50 [1]: 31.6 µM [falling, single point]

CCOC(=O)N1CCc2c(sc3c2c(=O)n(-c2ccc(CC)cc2)c(=O)n3Cc2ccc(F)cc2Cl)C1
AC50 [1]: 10 µM [falling, partial curve]

COc1ccccc1-c1cc(C(=O)Nc2cc(C)n(Cc3ccc(Cl)cc3)n2)no1
AC50 [1]: 0.126 µM [falling, full curve, poor fit]

CCOC(=O)c1c(NC(=O)Cc2coc3ccc(CC)cc23)sc2c1CCC2
AC50 [1]: 20 µM [falling, single point]

Cc1ccc(-n2ncc3c(NCCCn4ccnc4)ncnc32)cc1C
AC50 [1]: 20 µM [falling, partial curve]

O=C(CCn1c(=O)c2sccc2n(CC(=O)OCc2ccccc2)c1=O)NCc1ccco1
AC50 [1]: 31.6 µM [falling, partial curve]

CCOc1ccc2nc(N3CCCC(C(=O)NCCc4ccc(Cl)cc4)C3)sc2c1 (stereo not drawn)
AC50 [1]: 0.126 µM [falling, full curve]

Cc1nn(CCc2nc(-c3ccco3)cs2)c2[nH]c(=O)cc(C(F)(F)F)c12
AC50 [1]: 39.8 µM [falling, single point]

COc1ccccc1NC(=O)N1CCN(c2ccc3nnc(-c4ccc(F)cc4)n3n2)CC1
AC50 [1]: 2.51 µM [rising, partial curve]

c1ccc(CCn2nnnc2C(c2cccnc2)N2CCN(c3nc4ccccc4s3)CC2)cc1 (stereo not drawn)
AC50 [1]: 25.1 µM [falling, partial curve]

CC(=O)N1CCCc2ccc(NC(=O)c3ccc(OC(C)C)cc3)cc21
AC50 [1]: 12.6 µM [falling, partial curve]

CCC(=O)N1CCc2cc(Br)cc(S(=O)(=O)N3CCCC(C(=O)NCc4ccc(C)cc4)C3)c21 (stereo not drawn)
AC50 [1]: 15.8 µM [falling, partial curve, poor fit]

Cc1ccc(-n2c3nc(=O)n(C)c(=O)c-3cc3ccccc32)c(C)c1
AC50 [1]: 0.01 µM [falling, full curve, poor fit]

COc1cccc2cc(-c3nc4sc5c(c4c(=O)[nH]3)CCC(C(C)(C)C)C5)c(=O)oc12 (stereo not drawn)
AC50 [1]: 0.00316 µM [rising, full curve, poor fit]

Cc1nc2ccccn2c1/C(O)=C1\C(=O)C(=O)N(CCCN(C)C)C1c1ccc(Cl)cc1 (stereo not drawn)
AC50 [1]: 7.94 µM [falling, full curve, poor fit]

Cc1ccccc1S(=O)(=O)Cc1ccc(C(=O)N2CCN(c3cccc(C)c3C)CC2)o1
AC50 [1]: 5.01 µM [falling, partial curve]

Cc1ccc2c(=O)cc(C(=O)Nc3c(C)cccc3C)oc2c1
AC50 [1]: 25.1 µM [falling, single point]

CCCCN(Cc1cc2cc(C)ccc2[nH]c1=O)C(=O)c1cccc(Cl)c1
AC50 [1]: 7.94 µM [falling, partial curve]

COc1ccc(NC(=O)c2cc(-c3ccc(O)cc3)on2)cc1OC
AC50 [1]: 20 µM [rising, partial curve] [measured here: IkB-luc green channel]

CCOc1ccc(OCC)c(NC(=O)CSc2nc3c(c(=O)n(C)c(=O)n3C)n2C)c1
AC50 [1]: 7.94 µM [rising, single point] [measured here: IkB-luc green channel]

COC(=O)c1ccccc1NC(=O)C1CCCN(S(=O)(=O)c2ccccc2)C1 (stereo not drawn)
AC50 [1]: 15.8 µM [falling, partial curve]

CSc1nn(Cc2ccc(F)cc2)c(N(C(C)=O)C(C)=O)c1S(=O)(=O)c1ccccc1
AC50 [1]: 20 µM [falling, single point]

Cc1ccc(C(=O)CSc2nc(C)cc(C)c2C(=O)Nc2cccc(C)c2)cc1
AC50 [1]: 15.8 µM [falling, partial curve]

CNC(=O)c1ccc(-c2sc3nc(N4CCOCC4)c4c(c3c2N)CCCC4)o1
AC50 [1]: 10 µM [falling, partial curve]

CC1CCCN(Cc2nc3c(c(=O)n(C)c(=O)n3C)n2CC(=O)c2ccccc2)C1 (stereo not drawn)
AC50 [1]: 0.501 µM [falling, full curve]

CCN(C(=O)CN1C(=O)c2ccccc2Sc2ccc(C(=O)OC)cc21)c1cccc(C)c1
AC50 [1]: 20 µM [falling, single point]

Nc1ncnc2c1ncn2[C@@H]1O[C@@H](C(=O)NC2CC2)[C@H](O)[C@@H]1O
AC50 [2]: 0.00398 µM [rising, full curve, poor fit] | AC50 [3]: 0.00501 µM [rising, full curve, poor fit]

COC(=O)C1CCN(C(=O)COC(=O)c2n[nH]c3ccccc23)CC1
AC50 [1]: 2.51 µM [falling, full curve]

Cc1ccc(Nc2c(-c3ccccn3)nc3ccc(Br)cn23)cc1
AC50 [1]: 12.6 µM [falling, partial curve, poor fit]

CCC(=O)N1CCc2cc(Br)cc(S(=O)(=O)N3CCCC(C(=O)Nc4ccc(C)c(F)c4)C3)c21 (stereo not drawn)
AC50 [1]: 5.01 µM [falling, single point]

Cc1ccc(C(=O)N(Cc2ccc(N(C)C)cc2)CC2CCCO2)cc1 (stereo not drawn)
AC50 [1]: 25.1 µM [falling, single point]

CC(CCc1ccccc1)NC(=O)CSc1n[nH]c(-c2ccccc2)n1 (stereo not drawn)
AC50 [1]: 39.8 µM [falling, single point]

Cc1ccc2ccc3cc(C(=O)N4CCN(c5ccccc5F)CC4)nc3c2[nH]1
AC50 [1]: 10 µM [falling, partial curve, poor fit]

COc1ccccc1NC(=O)c1c(-c2ccc(C)cc2)nnc2ccccc12
AC50 [1]: 31.6 µM [falling, single point]

CSc1nsc(SCC(=O)NC2CCCCC2)n1
AC50 [1]: 5.01 µM [falling, partial curve]

O=C(CN1CCOCC1)Nc1ccc(Oc2ccc(NC(=O)CN3CCOCC3)cc2)cc1
AC50 [1]: 12.6 µM [falling, partial curve]

CN1CCN(c2ccc(NC(=O)c3cccc(OCc4ccccc4)c3)cc2)CC1
AC50 [1]: 7.94 µM [falling, partial curve]

c1ccc2[nH]c(-c3nc4ccccc4[nH]3)nc2c1
AC50 [1]: 1.26 µM [falling, full curve]

Cc1ccc(N=c2oc3cc(O)ccc3cc2C(N)=O)cc1
AC50 [1]: 0.000398 µM [falling, full curve]

CCCNC(=O)c1ccc2c(c1)N=C(CCC)c1ccccc1S2
AC50 [2]: 3.98 µM [rising, partial curve] | AC50 [3]: 1.26 µM [rising, full curve]

Cc1ccc(Cl)cc1-n1ncc2c(NCCc3ccccc3)ncnc21
AC50 [1]: 31.6 µM [falling, partial curve]

O=C(Cn1nc2c(cc1=O)CCCC2)NCc1ccc(Cl)cc1
AC50 [1]: 39.8 µM [rising, single point]
